Data reported in the supplement of paper PMC6414424.
Where a name gives a salt, the structure may show the parent alone. ± gives the standard deviation of the averaged measurements. Some of the results follow.

tested on: APPdp1-6 iPSC-derived neurons; test: pThr231Tau/total Tau ratio Z-score vs DMSO vehicle wells; higher = more pThr231Tau relative to total Tau; conditions: 5 µM; treatment time 5 days

Structure (SMILES) | pThr231Tau/total Tau ratio Z-score
O=C(c1ccc(OCCN2CCCCC2)cc1)c1c(-c2ccc(O)cc2)sc2cc(O)ccc12 [Prestw-862] | -1.65 ± 0.86
CCn1cc(C(=O)O)c(=O)c2cc(F)c(N3CCNCC3)cc21 [Prestw-221] | 1.41 ± 0.67
CC1(C)S[C@@H]2[C@H](N3C(=O)[C@@H](c4ccccc4)NC3(C)C)C(=O)N2[C@H]1C(=O)O [HETACILLIN POTASSIUM    Therap cat: antibacterial] | 0.547 ± 0.57
CCOC(=O)C1=C(C)NC(C)=C(C(=O)OC)C1c1cccc([N+](=O)[O-])c1 (stereo not drawn) [Prestw-916] | -0.3 ± 0.8
CC1CCc2cc(F)cc3c(=O)c(C(=O)O)cn1c23 (stereo not drawn) [Prestw-204] | -0.584 ± 0.73
O=C(NCC1CCCCN1)c1cc(OCC(F)(F)F)ccc1OCC(F)(F)F (stereo not drawn) [Prestw-735] | -0.156 ± 0.71
CCCCOc1ccc(OCCCN2CCOCC2)cc1 [Prestw-716] | -0.656 ± 1.7
CCCOc1ccc2nc(NC(=O)OC)[nH]c2c1 [Prestw-1460] | -3.65 ± 0.82
COc1c(O)cc2c(c1O)[C@@H]1O[C@H](CO)[C@@H](O)[C@H](O)[C@H]1OC2=O [BERGENIN    ex Bergenia spp.    J Chem Soc 1958: 2231] | 0.819 ± 0.25
COc1ccccc1OCCNCC(O)COc1cccc2[nH]c3ccccc3c12 (stereo not drawn) [Prestw-1262] | 0.102 ± 0.98
S=P(N1CC1)(N1CC1)N1CC1 [THIOTEPA    Therap cat: antineoplastic, alkylating agent] | 2.16 ± 2.4
COc1cc(N)c(Cl)cc1C(=O)NC1CCN(Cc2ccccc2)CC1 [Prestw-380] | -0.0531 ± 0.91
CCN1CCCC1CNC(=O)c1cc(S(=O)(=O)CC)c(N)cc1OC (stereo not drawn) [Prestw-1217] | 0.426 ± 0.31
NC(N)=NCCN1CCCCCCC1 [Prestw-317] | 1.52 ± 0.73
Cc1c(OCC(F)(F)F)ccnc1C[S+]([O-])c1nc2ccccc2[nH]1 (stereo not drawn) [Prestw-1072] | 0.119 ± 0.83
Cn1c(=O)c2c(ncn2C)n(C)c1=O [Prestw-1256] | 0.703 ± 0.048
CC(C)(C)NCC(O)c1ccc(O)c(CO)c1 (stereo not drawn) [Prestw-198] | -1.01 ± 0.69
COc1ccc2cc1Oc1ccc(cc1)C[C@H]1c3c(cc4c(c3Oc3cc5c(cc3OC)CCN(C)[C@@H]5C2)OCO4)CCN1C | -0.433 ± 1.2
CCOC(=O)c1ccc(O)cc1 [ETHYL PARABEN, antifungal] | 0.955 ± 1.2
CCC(=O)NCC[C@@H]1CCc2ccc3c(c21)CCO3 [RAMELTEON, melatonin receptor agonist] | 1.5 ± 0.36
COC1=CC(=O)C[C@@H](C)[C@]12Oc1c(Cl)c(OC)cc(OC)c1C2=O [Prestw-226] | -1.72 ± 0.52
CCCCC1=NC2(CCCC2)C(=O)N1Cc1ccc(-c2ccccc2-c2nn[nH]n2)cc1 [IRBESARTAN, angiotensin 2 receptor antagonist] | -0.835 ± 0.67
OCC(O)CN1CCN(c2ccccc2)CC1 (stereo not drawn) [Prestw-245] | 0.615 ± 0.73
CN(C)CCC(c1ccc(Cl)cc1)c1ccccn1 (stereo not drawn) [Prestw-117] | -0.639 ± 0.45
COc1cc(N)c(Cl)cc1C(=O)NC1CCN(CCCOc2ccc(F)cc2)CC1OC (stereo not drawn) [Prestw-430] | 1.37 ± 0.48

Structure (SMILES) | pThr231Tau/total Tau ratio Z-score
CCCC(CCC)C(=O)O [Prestw-1482] | -0.109 ± 1.2
O=C(O)CNC(=O)C(CS)Cc1ccccc1 (stereo not drawn) [Prestw-633] | 0.164 ± 0.47
Cc1onc(-c2ccccc2)c1C(=O)N[C@@H]1C(=O)N2[C@@H]1SC(C)(C)[C@@H]2C(=O)O [Prestw-1475] | -1.18 ± 0.2
CO/N=C1\CN(c2nc3c(cc2F)c(=O)c(C(=O)O)cn3C2CC2)CC1CN (stereo not drawn) [GEMIFLOXACIN MESYLATE, antibacterial] | -0.0854 ± 0.055
Clc1ccccc1C(c1ccccc1)(c1ccccc1)n1ccnc1 [Prestw-267] | -0.874 ± 0.34
NC(=O)NO | 0.29 ± 0.83
Clc1ccc(COC(Cn2ccnc2)c2ccc(Cl)cc2Cl)cc1 (stereo not drawn) [Prestw-304] | -0.894 ± 0.33
C=CC[N@@+]12CC[C@@]34c5ccccc5N5/C=C6/[C@H]7C[C@H]8[C@@]9(CC[N@@+]8(CC=C)C/C7=C/CO)c7ccccc7N(/C=C(/[C@@H](C[C@@H]31)/C(=C\CO)C2)[C@H]54)[C@@H]69 [Prestw-1036] | -1.69 ± 0.56
CCOC(=O)c1ccc(OC(=O)CCCCCN=C(N)N)cc1 [Prestw-1008] | -0.517 ± 0.18
CCCC(C(=O)OCCN(CC)CC)(c1ccccc1)c1ccccc1 [Prestw-778] | 1.22 ± 0.93
CN1CCC[C@H]1c1cccnc1 [Prototype nicotinic acetylcholine receptor agonist] | 0.321 ± 0.93
O=P(O)(O)C(O)(Cc1cccnc1)P(=O)(O)O [RISEDRONATE SODIUM HYDRATE, calcium regulator] | 0.578 ± 1.2
O=C(O)c1cc(O)c(O)c(O)c1 [Gallic acid] | 0.038 ± 0.29
Nc1ccc(N=Nc2ccccc2)c(N)n1 [Prestw-752] | 0.288 ± 1
CCN(CC)C(=O)N1CCN(C)CC1 [Prestw-284] | 0.177 ± 1.2
CC[C@]1(O)C[C@@H]2CN(CCc3c([nH]c4ccccc34)[C@@](C(=O)OC)(c3cc4c(cc3OC)N(C)[C@H]3[C@@](O)(C(=O)OC)[C@H](OC(C)=O)[C@]5(CC)C=CCN6CC[C@]43[C@@H]65)C2)C1 | -4.89 ± 0.97
CC(=O)[C@H]1CC[C@H]2[C@@H]3CC=C4C[C@@H](OC(=O)CCC(=O)O)CC[C@]4(C)[C@H]3CC[C@]12C [PREGNENOLONE SUCCINATE, glucocortcoid, antiinflammatory] | 0.738 ± 0.9
Cc1c(C)c2c(c(C)c1O)CC[C@@](C)(CCC[C@H](C)CCC[C@H](C)CCCC(C)C)O2 | 0.511 ± 0.51
CCCCC(CC)COC(=O)c1ccccc1O (stereo not drawn) [OCTISALATE, sunscreen] | 0.353 ± 0.45
CCN(CCCc1ccccc1)CCCc1ccccc1 [Prestw-174] | 0.995 ± 1.4
CCSc1ccc2c(c1)N(CCCN1CCN(C)CC1)c1ccccc1S2 [Prestw-1068] | 0.413 ± 0.12
C[N+](C)(C)CCOP(=O)([O-])OP(=O)(O)OC[C@H]1O[C@@H](n2ccc(N)nc2=O)[C@H](O)[C@@H]1O | -0.537 ± 0.77
CN(C)CCC(c1ccccc1)c1ccccn1 (stereo not drawn) [Prestw-59] | 0.55 ± 1.8
CC(C)CCC[C@@H](C)[C@H]1CC[C@H]2[C@@H]3CC=C4C[C@@H](O)CC[C@]4(C)[C@H]3CC[C@]12C [CHOLESTEROL, emulsifying agent] | 0.0975 ± 1.2
Cc1ccc(O)c([C@H](CCN(C(C)C)C(C)C)c2ccccc2)c1 [TOLTERODINE TARTRATE, muscarinic receptor antagonist] | -0.71 ± 0.032

Look-ups from the results shown:
For pThr231Tau/total Tau ratio Z-score, Clc1ccc(COC(Cn2ccnc2)c2ccc(Cl)cc2Cl)cc1 (stereo not drawn) [Prestw-304] has the entry -0.894 ± 0.33
For pThr231Tau/total Tau ratio Z-score, CCN(CCCc1ccccc1)CCCc1ccccc1 [Prestw-174] has the entry 0.995 ± 1.4
For pThr231Tau/total Tau ratio Z-score, CC[C@]1(O)C[C@@H]2CN(CCc3c([nH]c4ccccc34)[C@@](C(=O)OC)(c3cc4c(cc3OC)N(C)[C@H]3[C@@](O)(C(=O)OC)[C@H](OC(C)=O)[C@]5(CC)C=CCN6CC[C@]43[C@@H]65)C2)C1 has the entry -4.89 ± 0.97

The list continues:

Structure (SMILES) | pThr231Tau/total Tau ratio Z-score
CCCCOc1ccc(CC(=O)NO)cc1 [Prestw-243] | -0.131 ± 0.33
CC(=O)OC(C)C[N+](C)(C)C (stereo not drawn) [Prestw-759] | 0.559 ± 1.2
C=CCc1ccccc1OCC(O)CNC(C)C (stereo not drawn) [Prestw-250] | -0.135 ± 0.48
Oc1c(Cl)cc(Cl)cc1Sc1cc(Cl)cc(Cl)c1O [BITHIONOL    Therap cat:  anthelmintic; antiseptic] | 0.235 ± 1.1
C[C@H]1c2cccc(O)c2C(O)=C2C(=O)[C@]3(O)C(O)=C(C(N)=O)C(=O)[C@@H](N(C)C)[C@@H]3[C@@H](O)[C@@H]21 [Prestw-1399] | -0.232 ± 0.35
O=C(O)c1cc(=O)c2c(OCC(O)COc3cccc4oc(C(=O)O)cc(=O)c34)cccc2o1 [Prestw-812] | 0.114 ± 1.1
CC[C@]12CCCN3CCc4c(n(c5ccccc45)[C@@](O)(C(=O)OC)C1)[C@@H]32 [Prestw-271] | -1.07 ± 1.1
Nc1ccc(S(N)(=O)=O)cc1 [Prestw-729] | -0.506 ± 0.37
CC(CCc1ccc(O)cc1)NCCc1ccc(O)c(O)c1 (stereo not drawn) [Prestw-352] | -0.0216 ± 0.28
C[C@@H](O)[C@H]1C(=O)N2C(C(=O)O)=C(SCCN=CN)C[C@H]12 [Prestw-519] | -0.665 ± 0.018
CC1=C(C(=O)O)N2C(=O)[C@@H](NC(=O)[C@H](N)c3ccc(O)cc3)[C@H]2SC1 [Prestw-434] | 0.348 ± 1
C=CCN1CCCC1CNC(=O)c1cc2nn[nH]c2cc1OC (stereo not drawn) [Prestw-451] | -0.739 ± 0.31
CC(C)(Oc1ccc(C2CC2(Cl)Cl)cc1)C(=O)O (stereo not drawn) [Prestw-1076] | -0.353 ± 0.55
CCCc1nc(C)c2c(=O)[nH]c(-c3cc(S(=O)(=O)N4CCN(CC)CC4)ccc3OCC)nn12 [Prestw-1356] | 0.306 ± 0.2
C=C(NC(=O)C(=C)NC(=O)c1csc(C2=N[C@@H]3c4csc(n4)[C@H]4NC(=O)c5csc(n5)[C@H]([C@](C)(O)[C@@H](C)O)NC(=O)[C@H]5CSC(=N5)/C(=C/C)NC(=O)[C@H]([C@@H](C)O)NC(=O)c5csc(n5)[C@]3(CC2)NC(=O)[C@H](C)NC(=O)C(=C)NC(=O)[C@H](C)NC(=O)[C@H]([C@@H](C)CC)N[C@@H]2C=Cc3c([C@H](C)O)cc(nc3[C@H]2O)C(=O)O[C@@H]4C)n1)C(N)=O [Prestw-522] | -3.89 ± 1.2
CCC(C)(CN(C)C)OC(=O)c1ccccc1 (stereo not drawn) [Prestw-49] | -1.109 ± 0.00044
Nc1nccs1 [AMINOTHIAZOLE    Therap cat: antithyroid agent] | 0.649 ± 1
NC(=O)c1cccnc1 [Prestw-1449] | -0.784 ± 2
Cn1c(=O)c2c(ncn2CC(O)CO)n(C)c1=O (stereo not drawn) [Prestw-33] | 0.426 ± 0.1
CCCCCCCCCCCCCCCC[N+](C)(C)C [CETRIMONIUM BROMIDE    Therap cat: antiseptic] | -3.3 ± 1.3
S=c1nc[nH]c2nc[nH]c12 [Prestw-1469] | 0.132 ± 0.74
CNC1(C)C2CCC(C2)C1(C)C (stereo not drawn) [Prestw-1111] | 6.81 ± 9.1
NC(=O)C1(N2CCCCC2)CCN(CCCC(=O)c2ccc(F)cc2)CC1 [PIPAMPERONE, antipsychotic] | 1.34 ± 1.5
